Values from PubChem BioAssay AID1259405 (NCATS, 2018)

Screen: 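Mouse-designed siRNAs used to find CHO productivity engineering targets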 (primary screen)
System: Chinese hamster CHO-K1 ovary cells with stable secreted eGFP expression
Reagents: single siRNA against mouse genes, 0.8 pmol siRNA per well (2 µl of 400 nM stock)
Time to read-out: 3 days
Read-out: 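Per-well intracellular GFP measured by laser scanning cytometry, plus viability from ATP luminescence, each relative to plate median of non-targeting control wells, in %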
Reading the numbers: GFP, % of control: higher = more GFP per well, higher productivity; viability (ATP), % of control: higher = more viable cells (more ATP)
Hit rule: 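a knock-down is called active if GFP reaches 120% or more of non-targeting control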
Here is a random part of about 50,000 reagents. About 4,000 of all reagents (8%) were called active. 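Mouse siRNA library applied to hamster cells; one well for each siRNA.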 Reagents against one gene are numbered here. Reagent sequences are not shown.

gene,reagent,"GFP, % of control","viability (ATP), % of control",call
Ttc17 (tetratricopeptide repeat domain 17),1,41.9,50,inactive
Ttc17 (tetratricopeptide repeat domain 17),2,106,123,inactive
Ttc17 (tetratricopeptide repeat domain 17),3,106,97,inactive
Mrps6 (mitochondrial ribosomal protein S6),1,81,89.6,inactive
Mrps6 (mitochondrial ribosomal protein S6),2,45.2,88.9,inactive
Mrps6 (mitochondrial ribosomal protein S6),3,56.1,79.1,inactive
A630001G21Rik (RIKEN cDNA A630001G21 gene),1,82.8,87.9,inactive
A630001G21Rik (RIKEN cDNA A630001G21 gene),2,100,90.1,inactive
A630001G21Rik (RIKEN cDNA A630001G21 gene),3,62,70.3,inactive
Bcl6 (B cell leukemia/lymphoma 6),1,70.6,73.2,inactive
Bcl6 (B cell leukemia/lymphoma 6),2,68.7,52.9,inactive
Gli3 (GLI-Kruppel family member GLI3),1,54.7,43.5,inactive
Gli3 (GLI-Kruppel family member GLI3),2,80.7,91.2,inactive
"Lman2 (lectin, mannose-binding 2)",1,65.3,87.6,inactive
"Lman2 (lectin, mannose-binding 2)",2,57.4,62.1,inactive
Gstp3 (glutathione S-transferase pi 3),1,43.6,64.5,inactive
Gstp3 (glutathione S-transferase pi 3),2,143,101,active
Gstp3 (glutathione S-transferase pi 3),3,34.4,29.6,inactive
Gm11437 (predicted gene 11437),1,38,70.6,inactive
Gm11437 (predicted gene 11437),2,81.8,75.7,inactive
Gm11437 (predicted gene 11437),3,45.3,56.1,inactive
Lta (lymphotoxin A),1,205,124,active
Lta (lymphotoxin A),2,107,82.1,inactive
Myo5c (myosin VC),1,83.2,78.2,inactive
Myo5c (myosin VC),2,76.6,88.6,inactive
Cimap1b (ciliary microtubule associated protein 1B),1,91.9,64.3,inactive
Cimap1b (ciliary microtubule associated protein 1B),2,70.1,92.7,inactive
Cimap1b (ciliary microtubule associated protein 1B),3,56.1,62.1,inactive
Fkbp1a (FK506 binding protein 1a),1,77.8,88.3,inactive
Fkbp1a (FK506 binding protein 1a),2,64.4,74.8,inactive
Fkbp1a (FK506 binding protein 1a),3,59.9,63.9,inactive
Muc15 (mucin 15),1,64.4,86.8,inactive
Muc15 (mucin 15),2,150,73,active
Muc15 (mucin 15),3,55.2,38.2,inactive
"Tkfc (triokinase, FMN cyclase)",1,97.8,94,inactive
"Tkfc (triokinase, FMN cyclase)",2,78.5,95.9,inactive
Or8k16 (olfactory receptor family 8 subfamily K member 16),1,67.3,62.5,inactive
Or8k16 (olfactory receptor family 8 subfamily K member 16),2,80.4,73.1,inactive
Or8k16 (olfactory receptor family 8 subfamily K member 16),3,81.7,53.5,inactive
"Kcnj5 (potassium inwardly-rectifying channel, subfamily J, member 5)",1,94.2,58.1,inactive
"Kcnj5 (potassium inwardly-rectifying channel, subfamily J, member 5)",2,103,88.2,inactive
"Kcnj5 (potassium inwardly-rectifying channel, subfamily J, member 5)",3,76.1,93.3,inactive
Vmn1r15 (vomeronasal 1 receptor 15),1,92.5,63.2,inactive
Vmn1r15 (vomeronasal 1 receptor 15),2,73.8,58.6,inactive
Vmn1r15 (vomeronasal 1 receptor 15),3,50.6,72.7,inactive
E2f8 (E2F transcription factor 8),1,101,117,inactive
E2f8 (E2F transcription factor 8),2,69.4,106,inactive
"Igsf11 (immunoglobulin superfamily, member 11)",1,56.9,65.6,inactive
"Igsf11 (immunoglobulin superfamily, member 11)",2,63.3,53.6,inactive
"Igsf11 (immunoglobulin superfamily, member 11)",3,59.4,85.2,inactive
Rspo1 (R-spondin 1),1,102,57.4,inactive
Rspo1 (R-spondin 1),2,103,74.7,inactive
Rspo1 (R-spondin 1),3,81.1,88.8,inactive
Or10q12 (olfactory receptor family 10 subfamily Q member 12),1,183,97,active
Or10q12 (olfactory receptor family 10 subfamily Q member 12),2,52.8,62.6,inactive
Or10q12 (olfactory receptor family 10 subfamily Q member 12),3,62.5,70.2,inactive
"Ppp1r15b (protein phosphatase 1, regulatory subunit 15B)",1,87.6,143,inactive
"Ppp1r15b (protein phosphatase 1, regulatory subunit 15B)",2,94.8,68.7,inactive

Copied from the entries so far, 9 entries:
gene,reagent,"GFP, % of control","viability (ATP), % of control",call
Cimap1b (ciliary microtubule associated protein 1B),2,70.1,92.7,inactive
Cimap1b (ciliary microtubule associated protein 1B),3,56.1,62.1,inactive
Fkbp1a (FK506 binding protein 1a),1,77.8,88.3,inactive
Fkbp1a (FK506 binding protein 1a),2,64.4,74.8,inactive
Fkbp1a (FK506 binding protein 1a),3,59.9,63.9,inactive
Muc15 (mucin 15),1,64.4,86.8,inactive
Muc15 (mucin 15),2,150,73,active
Muc15 (mucin 15),3,55.2,38.2,inactive
"Tkfc (triokinase, FMN cyclase)",1,97.8,94,inactive
